# Results as given in PubChem BioAssay AID651956 (Broad Institute, 2012).
# Inconclusive results, whose numbers are uncertain, are shown with a selection of clear calls. Active and inactive are the calls of the source.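 Rule for the calls: active = in every test run, a fitted half-maximal concentration for signal decrease at or below twice the highest tested concentration; inconclusive = runs disagree, flat 30 to 70% decrease, or poor fit; inactive = the rest.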
# Experiment: miR-122 activators in hepatoma reporter cells, dose response, cell-based, Huh7 psiCHECK-miR122, Renilla luciferase, cherry-picked (AID 651956);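 note: Renilla luciferase from a miR-122 sensor reporter so lower signal means miR-122 activation; 0% = median neutral control wells and -100% = median positive control wells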
# Settings: 48 h; at 35 µM (top of the series) unless noted
row,Compound,"activity change, negative = signal decrease"
1,Cc1ccc(S(=O)(=O)Nc2ccc3c(c2)C(=O)N(C)[C@@H]2CC[C@@H](CC(=O)NCCc4ccncc4)O[C@@H]2CO3)cc1,inconclusive: -29.1%
2,CCCC(=O)Nc1ccc2c(c1)C(=O)N(C)[C@@H]1CC[C@H](CC(=O)N3CCc4ccccc4C3)O[C@H]1CO2,inconclusive: -51.1%
3,CCC(=O)N1[C@H](CN(C(C)C)S(C)(=O)=O)[C@H](c2ccccc2)[C@@H]1CO,inconclusive: -21.7%
4,C[C@@H]1CN([C@@H](C)CO)S(=O)(=O)c2ccc(-c3cncnc3)cc2O[C@@H]1CN(C)Cc1ccc(Oc2ccccc2)cc1,inconclusive: -71.5%
5,C/C=C/c1ccc([C@@H]2[C@H](CO)N[C@H]2CN(CC(C)C)C(=O)c2ccccn2)cc1,inactive: 80%
6,Fc1ccccc1-c1nc(-c2ccncc2)no1,inactive: 44.4%
7,C/C=C/c1ccc([C@H]2[C@H](CO)N[C@@H]2CN(CC)C(=O)c2cccnc2)cc1,inconclusive: -19.5%
8,CN(C)CCCNC(=O)C[C@H]1CC[C@H]2[C@H](COc3ccc(NC(=O)NC4CCCC4)cc3C(=O)N2C)O1,inconclusive: -30.3%
9,CC(=O)N1[C@H](CO)[C@@H](c2ccccc2)[C@H]1CN(CC(C)C)C(=O)c1ccccn1,inconclusive: -38.3%
10,CCN(C[C@H]1[C@@H](c2ccccc2)[C@@H](CO)N1C(=O)COC)S(C)(=O)=O,inconclusive: -42.6%
11,COC(=O)C[C@H]1CC[C@H]2[C@H](COc3ccc(NC(=O)NC(C)C)cc3C(=O)N2C)O1,inactive: -0.168%
12,CCNC(=O)C[C@H]1CC[C@@H]2[C@H](COc3ccc(NC(=O)c4cccs4)cc3C(=O)N2C)O1,inconclusive: -32.5%
13,COc1cccc(C(=O)Nc2ccc3c(c2)C(=O)N(C)[C@@H]2CC[C@H](CC(=O)NCc4ccc(F)cc4)O[C@@H]2CO3)c1,inconclusive: -75.8%
14,CN1C(=O)c2cc(NC(=O)Nc3cccc(Cl)c3)ccc2OC[C@H]2O[C@H](CC(=O)NCCc3ccncc3)CC[C@H]21,inconclusive: -40.3%
15,CNC(=O)C[C@@H]1CC[C@@H]2[C@H](COc3ccc(NC(=O)Nc4ccc(Cl)cc4)cc3C(=O)N2C)O1,inconclusive: -42.3%
16,Cc1ccc(OCCN2CCN(c3ncnc4sc(C)c(C)c34)CC2)cc1,inactive: -40.6%
17,COC(=O)c1nn(-c2ccccc2)c(Sc2ccc(Cl)cc2)c1/C=N/O,inactive: 94.2%

# Retrieved by structure from above:
row,Compound,"activity change, negative = signal decrease"
6,Fc1ccccc1-c1nc(-c2ccncc2)no1,inactive: 44.4%
7,C/C=C/c1ccc([C@H]2[C@H](CO)N[C@@H]2CN(CC)C(=O)c2cccnc2)cc1,inconclusive: -19.5%

# Next part

row,Compound,"activity change, negative = signal decrease"
1,COCC(=O)Nc1ccc2c(c1)C(=O)N(C)[C@@H]1CC[C@H](CC(=O)NCc3ccccc3F)O[C@H]1CO2,inactive: 372%
2,FC(F)(F)c1cnc(N2CCCN(C(=S)Nc3ccccc3)CC2)c(Cl)c1,inactive: -21.4%
3,CCC(=O)N1[C@H](CO)[C@H](c2ccccc2)[C@@H]1CN(CC)C(=O)c1ccccc1,inactive: -26.6%
4,C[C@@H]1CN([C@@H](C)CO)S(=O)(=O)c2ccc(C3=CCCCC3)cc2O[C@@H]1CN(C)C(=O)Nc1ccc2c(c1)OCO2,inactive: -113%
5,C/C=C/c1ccc([C@@H]2[C@@H](CO)N(C(C)=O)[C@H]2CN(C(=O)COC)C(C)C)cc1,inconclusive: -32.6%
6,COCC(=O)N1[C@@H](CO)[C@@H]2c3ccccc3N(C(=O)C3CC3)C[C@@H]21,inactive: 17.5%
7,O=C(Nc1ccc(CN2CCOCC2)cc1)c1ccc(-c2ccc(Cl)cc2Cl)o1,inactive: -3.51%
8,COCC(=O)N(C)C[C@@H]1[C@@H](c2ccccc2)[C@H](CO)N1C(=O)Cc1ccncc1,inactive: -13.1% [at 30 µM]
9,O=C(Cc1cccnc1)N1[C@@H](CO)[C@@H]2c3ccccc3NC[C@@H]21,inconclusive: -50.4%
10,CC(C)N(C[C@H]1[C@H](c2ccccc2)[C@@H](CO)N1S(C)(=O)=O)C(=O)CN(C)C,inconclusive: -64.7% [at 30 µM]
11,CN1[C@@H](CO)[C@@H]2c3ccccc3N(C(=O)Nc3cc(F)ccc3F)C[C@@H]21,inconclusive: -30.3%
12,CCC(=O)N1[C@@H](CO)[C@@H](c2ccccc2)[C@@H]1CN(C(C)C)S(C)(=O)=O,inconclusive: -14.2%
13,C[C@H]1CN([C@@H](C)CO)C(=O)c2cc(C#Cc3cccnc3)cnc2O[C@H]1CN(C)S(=O)(=O)c1ccccc1F,inconclusive: -54.7%
14,CC(C)C(=O)NC(c1ccco1)c1ccc2cccnc2c1O (centres undefined),inconclusive: -20.7%
15,CCN(C[C@H]1[C@H](c2ccccc2)[C@@H](CO)N1S(C)(=O)=O)C(=O)C1CC1,inconclusive: -11.7%
16,O=C(CN1CCOCC1)NC[C@@H]1N[C@@H](CO)[C@@H]1c1ccc(-c2ccccc2)cc1,inconclusive: -57.5%
17,CCC(=O)N1[C@H](CO)[C@@H](c2ccccc2)[C@@H]1CN(CC)C(=O)c1cccc(F)c1,inconclusive: -12.5%
